This note sets out measurements from PubChem BioAssay AID493014 (National Center for Advancing Translational Sciences (NCATS), 2011).

The experiment in a line: qHTS Assay to Find Inhibitors of Chronic Active B-Cell Receptor Signaling. The settings on record: ABC-DLBCL IkBa-CBG/CBR reporter, luminescence ratio (green luciferase fused to IkBa over red control in TMD8 lymphoma cells), 4 h. The method in brief:
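Concentration-response series (up to 46 uM) were applied to TMD8 dual-reporter cells for 4 h at 37C with doxycycline. Green/red ratio, after filter-overlap correction, defined %Activity; red signal alone was normalised to basal cells and zero luminescence.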
(Quantitative high-throughput screening tests each substance at several concentrations.)

Setting [1] is: measured here: CBR red luminescence, cell number.

The list shows a part of the results. The main result of the screen is listed elsewhere. These columns were measured beside it and carry no call. The list favours compounds with an active or inconclusive main result. Potencies come from curve fits of mixed quality, noted in brackets.

A word on the AC50: it is the concentration giving half of the maximal activity seen.

As for `CCOC(=O)C(O)(c1ccc(NC(=O)c2ccco2)c(OC)c1)C(F)(F)F` (stereo unspecified), the AC50 under setting [1] is 29.1 µM [falling, single point]. Same read-out and setting: for `CCCCC(=O)N/N=C/c1c(O)n(CC)c(=S)n(CC)c1=O` the value was 16.4 µM [falling, partial curve, poor fit]; for `CCn1nc(/C=C/c2ccccc2)nc2c(=O)n(C)c(=O)nc1-2`, 20 µM [rising, partial curve, poor fit]; for `COc1ccc(CCNc2oc(-c3ccc(OC)c(OC)c3)nc2P(=O)(OC)OC)cc1OC`, 0.517 µM [rising, full curve, poor fit]. Same read-out and setting: for `COC(=O)c1nc(-c2ccc3c(n2)C(=O)C(N)=C(OC)C3=O)c(N)c(-c2ccc(OC)c(OC)c2O)c1C` the value was 0.708 µM [rising, full curve, poor fit].

As for `O=C1NC(=O)C(CCc2ccncc2)(CCc2ccncc2)C(=O)N1C1CCCCC1`, the AC50 by setting is: under setting [1], 7.94 µM [rising, partial curve, poor fit]; (measured here: IkBa-CBG green luminescence) 3.98 µM [rising, partial curve, poor fit]. In the case of `COc1ccc2c(c1)c(C(=O)O)c(C)n2CC(C)C`, the AC50 under setting [1] was 6.51 µM [rising, single point]. Regarding `O=C1NC(=O)N(c2ccccc2)C(=O)/C1=C/c1ccc(Sc2ccccc2)o1`, the AC50 under setting [1] is 2.82 µM [rising, single point]. Regarding `CC(C)c1ccc(-n2c(O)c(C=NCCN3CCNCC3)c(=O)[nH]c2=S)cc1`, under setting [1], the concentration at half-maximal activity (AC50) is 22.4 µM [rising, single point]. On to `Cn1nc(OC(=O)Nc2ccc(F)cc2)cc1C(F)(F)F`, for which the AC50 under setting [1] is 2.91 µM [rising, full curve, poor fit]. The same measure, in the same setting: then `COc1ccc(Cn2c(O)c(/C=N/NC(=O)c3ccccc3O)c(=O)[nH]c2=O)cc1`, with 5.8 µM [falling, partial curve]; and `COc1ccc2c(c1)C13CCCC[C@@H]1C(C2)N(C)CC3` (stereo partly specified), with 0.794 µM [rising, partial curve, poor fit]. Turning to `Cn1c(O)c(C2=NNC(c3ccc(Cl)cc3)C2)c(=O)n(C)c1=O` (stereo unspecified), the AC50 under setting [1] was 3.16 µM [falling, partial curve]. On the same count and under the same terms, then `CN1C(=O)C(=Cc2ccccc2Oc2ccc(Cl)cc2)C(=O)N(C)C1=O`, with 5.17 µM [falling, partial curve, poor fit]; and `C#CCN1CCN(c2cccc(C(F)(F)F)c2)CC1`, with 12.6 µM [rising, partial curve, poor fit]. Still for that read-out and setting: then `Cn1c(=O)oc2cc(S(=O)(=O)N3CCC(C(=O)NCc4cccs4)CC3)ccc21`, with 6.51 µM [falling, single point]; and `COc1ccccc1N1C(=O)NC(=O)C2(Cc3cc(C)ccc3N(C)C2)C1=O` (stereo unspecified), with 4.47 µM [rising, partial curve, poor fit]. On the same count and under the same terms, then `Cc1cc(C)c(Cn2c(C(=O)O)c(C=O)c3ccccc32)c(C)c1`, with 14.1 µM [rising, single point]. For the molecule `N[C@@]1(C(=O)O)CC[C@@H](C(=O)O)C1`, under setting [1], the AC50 was 29.1 µM [falling, single point]. Take `Cc1ncc(CN2CCCC(C(=O)c3cccc(Cl)c3)C2)s1` (stereo unspecified): under setting [1], the AC50 was 31.6 µM [rising, single point].

In the case of `CCCOC(=O)C1C2c3ccccc3C(c3ccccc32)C1C(=O)O` (stereo unspecified), under setting [1], the AC50 was 35.5 µM [rising, single point]. For the molecule `COc1ccc(/C=C/C(=O)Nc2cccc(S(=O)(=O)N3CCCC3)c2)cc1OC`, under setting [1], the AC50 is 35.5 µM [falling, single point]. The same measure, in the same setting: for `COCC(C)OC(=O)c1c(N)n(Cc2ccco2)c2nc3ccccc3nc12` (stereo unspecified) the value was 1.58 µM [falling, partial curve, poor fit]; for `CCCNC(=O)c1c(N)n(Cc2ccc3c(c2)OCO3)c2nc3ccccc3nc12`, 4.11 µM [falling, partial curve, poor fit]; for `CCN(CC)c1ccc(/C=C(\C#N)C(N)=O)cc1`, 12.6 µM [rising, partial curve, poor fit]. For the molecule `CCCCOP(=O)(c1ccc(N(C)C)cc1)C(O)c1ccc(C(C)C)cc1` (stereo unspecified), the AC50 under setting [1] is 12.6 µM [falling, partial curve]. Same read-out and setting: then `COc1nc2ccccc2c(=O)n1-c1ccc(Cl)cc1`, with 29.1 µM [rising, single point]. Still for that read-out and setting: for `COc1ccccc1NC(=O)COC(=O)c1cn(C)c2ccccc12` the value was 3.26 µM [falling, partial curve]; for `Cc1nn(Cc2ccccc2)c(Cl)c1C(=O)OCC(=O)Nc1cccc2ccccc12`, 32.6 µM [falling, single point]. As for `Cc1ccccc1-n1c(/C=C/c2ccccn2)nc2ccccc2c1=O`, the AC50 under setting [1] is 7.08 µM [rising, full curve, poor fit]. Turning to `COC(=O)C1=C(c2ccc(F)cc2F)C[C@@H]2CC[C@H]1N2C(=O)NCCOc1ccccc1Cl`, the AC50 under setting [1] is 0.517 µM [falling, full curve, poor fit]. With `Nc1c(C(=O)NC2CCCC2)c2nc3ccccc3nc2n1CC1CCCO1` (stereo unspecified), under setting [1], the half-maximal activity concentration (AC50) was 17.8 µM [falling, single point].

On to `COc1ccc(N=Nc2c(O)[nH]c(=S)[nH]c2=O)cc1`, for which the AC50 under setting [1] is 10 µM [falling, partial curve]. On the same count and under the same terms, for `O=C(N/N=C/c1c(O)n(CCc2ccc(F)cc2)c(=O)[nH]c1=O)c1ccccc1` the value was 1.58 µM [falling, full curve]; for `CC1(C)Cc2c(sc3c2C(=O)NC(c2cccnc2)N3)CO1` (stereo unspecified), 5.8 µM [falling, single point]. For the molecule `O=C(/C=C/c1ccccc1)NC(=S)N1C[C@H]2C[C@H](C1)c1cccc(=O)n1C2`, the AC50 under setting [1] was 3.16 µM [rising, partial curve, poor fit]. On the same count and under the same terms, for `O=C1NC(=O)N(c2ccccc2F)C(=O)/C1=C/c1ccc(Sc2nc3ccccc3[nH]2)o1` the value was 0.92 µM [rising, full curve, poor fit]; for `CC1CCN(CC(=O)c2ccc3c(c2)OCCO3)CC1`, 17.8 µM [falling, partial curve]. Turning to `CC(C(=O)c1ccccc1)N1C(=O)c2ccccc2C1=O` (stereo unspecified), the AC50 under setting [1] was 13 µM [rising, partial curve, poor fit]. Still for that read-out and setting: for `CCCCC/C(=N\O)c1c[nH]c2ccccc12` the value was 0.0891 µM [rising, full curve, poor fit].
